Measured values: PMC4102811
These are yes or no findings as the source states them, for the method shown. Binding seen in cells or lysates may run through a third protein. Binding can be weak; no strength is given. Sequences can lack the tags named with a protein.

Target: T1, Myc-TRAF2 (UniProt Q12933)
T1 sequence: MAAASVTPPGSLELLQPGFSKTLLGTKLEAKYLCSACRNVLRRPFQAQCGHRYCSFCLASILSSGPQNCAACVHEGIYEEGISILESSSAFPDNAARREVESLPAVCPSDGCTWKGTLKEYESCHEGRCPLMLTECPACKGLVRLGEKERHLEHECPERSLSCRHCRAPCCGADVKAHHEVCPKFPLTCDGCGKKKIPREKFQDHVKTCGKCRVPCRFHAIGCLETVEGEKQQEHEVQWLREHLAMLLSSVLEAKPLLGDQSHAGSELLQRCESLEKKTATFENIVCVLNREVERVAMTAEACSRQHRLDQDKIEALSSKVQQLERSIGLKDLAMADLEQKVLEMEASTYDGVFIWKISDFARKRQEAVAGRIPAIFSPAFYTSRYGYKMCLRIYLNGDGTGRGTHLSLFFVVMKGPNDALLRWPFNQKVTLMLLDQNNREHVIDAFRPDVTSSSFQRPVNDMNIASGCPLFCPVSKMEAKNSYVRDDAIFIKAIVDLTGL
Test: co-IP; 293T cells co-transfected with the two tagged proteins, 10 uM MG132 overnight before harvest; EBC lysis buffer (50 mM Tris pH 8.0, 120 mM NaCl, 0.5% NP-40); 1 mg lysate with anti-tag antibody (FLAG, HA or Myc) overnight at 4°C; five washes with NETN buffer (100 mM NaCl, 0.5% NP-40); western blot

Row | Substance | binding
1 | FLAG-DAB2IP (wild-type) | binds
2 | FLAG-DAB2IP S847A | binds
